Measured values published in the supplement of paper PMC12823440, “Inhibitors supercharge kinase turnover through native proteolytic circuits” (Nature, 2025).
Structures can show the parent of a compound that is named as a salt. This is one part of the list. Hit calls seldom repeat between salt and free forms of one compound.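 Kinases were expressed as nanoluciferase fusions in K562 cells and luminescence was read every 4 h between 2 and 18 h as percent of control, DMSO set to 100% and a positive control to 0%. A time point counts as decreased when the signal drops significantly (2 sigma). The hit call is the authors' own, does not follow from the count of time points alone, and its rule is not shown.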

Amino acid sequences for entries named in this document (tags omitted). A change or cut given only in a name is not applied to a line headed by its entry.
UniProt P50750, whole entry: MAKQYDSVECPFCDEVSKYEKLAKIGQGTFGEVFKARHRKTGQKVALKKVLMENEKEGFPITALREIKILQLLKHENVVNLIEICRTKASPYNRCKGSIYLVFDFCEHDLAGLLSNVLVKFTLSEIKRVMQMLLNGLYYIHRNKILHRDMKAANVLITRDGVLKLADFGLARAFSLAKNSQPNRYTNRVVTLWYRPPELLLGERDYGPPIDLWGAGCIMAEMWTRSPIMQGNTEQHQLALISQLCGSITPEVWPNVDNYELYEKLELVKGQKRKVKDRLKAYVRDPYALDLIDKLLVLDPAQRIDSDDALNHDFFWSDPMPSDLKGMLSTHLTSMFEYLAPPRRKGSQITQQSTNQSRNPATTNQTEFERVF
UniProt O96017, whole entry: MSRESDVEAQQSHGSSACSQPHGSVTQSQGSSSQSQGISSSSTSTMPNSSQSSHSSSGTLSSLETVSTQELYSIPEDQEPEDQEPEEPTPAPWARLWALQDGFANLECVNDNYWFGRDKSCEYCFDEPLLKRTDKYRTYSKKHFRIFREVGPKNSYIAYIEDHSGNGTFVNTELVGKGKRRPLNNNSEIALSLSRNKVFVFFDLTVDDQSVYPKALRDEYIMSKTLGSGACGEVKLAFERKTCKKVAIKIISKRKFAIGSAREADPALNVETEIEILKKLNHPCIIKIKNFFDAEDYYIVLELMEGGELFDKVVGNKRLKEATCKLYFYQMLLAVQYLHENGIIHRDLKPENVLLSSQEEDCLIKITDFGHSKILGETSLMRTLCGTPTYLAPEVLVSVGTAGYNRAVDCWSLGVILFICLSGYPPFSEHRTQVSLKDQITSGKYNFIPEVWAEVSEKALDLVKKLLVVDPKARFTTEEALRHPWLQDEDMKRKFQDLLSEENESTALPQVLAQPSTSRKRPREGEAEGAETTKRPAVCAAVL
UniProt P07333, whole entry: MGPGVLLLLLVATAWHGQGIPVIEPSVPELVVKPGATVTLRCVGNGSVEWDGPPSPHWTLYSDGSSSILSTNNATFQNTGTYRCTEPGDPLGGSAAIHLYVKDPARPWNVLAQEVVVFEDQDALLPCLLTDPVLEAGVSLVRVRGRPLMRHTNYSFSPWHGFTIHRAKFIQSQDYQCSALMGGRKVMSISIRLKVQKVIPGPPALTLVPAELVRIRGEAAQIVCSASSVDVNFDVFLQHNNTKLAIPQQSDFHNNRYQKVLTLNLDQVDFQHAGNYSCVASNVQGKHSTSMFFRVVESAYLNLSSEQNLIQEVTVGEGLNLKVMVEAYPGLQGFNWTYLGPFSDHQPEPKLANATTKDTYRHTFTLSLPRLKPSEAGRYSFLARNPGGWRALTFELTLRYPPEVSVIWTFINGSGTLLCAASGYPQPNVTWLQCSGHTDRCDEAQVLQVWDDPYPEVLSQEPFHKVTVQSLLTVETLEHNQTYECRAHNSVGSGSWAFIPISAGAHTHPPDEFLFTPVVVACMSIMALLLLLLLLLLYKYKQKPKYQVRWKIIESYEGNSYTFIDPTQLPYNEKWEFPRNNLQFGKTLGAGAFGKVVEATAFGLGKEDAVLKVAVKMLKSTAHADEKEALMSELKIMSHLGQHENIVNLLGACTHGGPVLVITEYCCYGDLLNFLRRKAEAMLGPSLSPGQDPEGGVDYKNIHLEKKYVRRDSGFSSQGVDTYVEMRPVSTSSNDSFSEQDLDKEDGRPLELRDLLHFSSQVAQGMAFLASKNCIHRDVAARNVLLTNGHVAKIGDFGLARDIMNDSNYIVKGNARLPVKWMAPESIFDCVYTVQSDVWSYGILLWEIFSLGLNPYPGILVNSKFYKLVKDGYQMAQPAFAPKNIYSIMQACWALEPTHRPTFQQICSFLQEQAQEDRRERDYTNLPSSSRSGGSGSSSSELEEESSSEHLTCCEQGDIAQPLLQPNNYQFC
UniProt P41240: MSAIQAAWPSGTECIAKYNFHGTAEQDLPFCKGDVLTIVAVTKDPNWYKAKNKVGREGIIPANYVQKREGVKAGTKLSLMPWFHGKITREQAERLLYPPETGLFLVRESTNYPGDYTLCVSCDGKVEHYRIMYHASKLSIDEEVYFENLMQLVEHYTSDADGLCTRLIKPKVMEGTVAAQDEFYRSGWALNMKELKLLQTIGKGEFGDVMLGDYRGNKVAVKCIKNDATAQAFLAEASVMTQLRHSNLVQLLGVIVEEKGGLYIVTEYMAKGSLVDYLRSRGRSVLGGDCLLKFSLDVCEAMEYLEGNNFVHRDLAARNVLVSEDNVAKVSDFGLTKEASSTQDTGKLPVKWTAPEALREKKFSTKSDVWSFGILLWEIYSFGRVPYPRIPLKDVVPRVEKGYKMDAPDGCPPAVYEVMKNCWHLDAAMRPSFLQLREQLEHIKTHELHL
UniProt P48729: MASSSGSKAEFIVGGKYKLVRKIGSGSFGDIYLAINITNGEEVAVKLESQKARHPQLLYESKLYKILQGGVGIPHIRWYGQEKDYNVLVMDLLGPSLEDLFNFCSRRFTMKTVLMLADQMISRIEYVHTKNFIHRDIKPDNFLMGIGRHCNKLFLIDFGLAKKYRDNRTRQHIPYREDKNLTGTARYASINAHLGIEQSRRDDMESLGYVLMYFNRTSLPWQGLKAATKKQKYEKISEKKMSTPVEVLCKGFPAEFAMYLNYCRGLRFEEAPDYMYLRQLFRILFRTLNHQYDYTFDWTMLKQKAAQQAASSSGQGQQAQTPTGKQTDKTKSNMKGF
UniProt P48730: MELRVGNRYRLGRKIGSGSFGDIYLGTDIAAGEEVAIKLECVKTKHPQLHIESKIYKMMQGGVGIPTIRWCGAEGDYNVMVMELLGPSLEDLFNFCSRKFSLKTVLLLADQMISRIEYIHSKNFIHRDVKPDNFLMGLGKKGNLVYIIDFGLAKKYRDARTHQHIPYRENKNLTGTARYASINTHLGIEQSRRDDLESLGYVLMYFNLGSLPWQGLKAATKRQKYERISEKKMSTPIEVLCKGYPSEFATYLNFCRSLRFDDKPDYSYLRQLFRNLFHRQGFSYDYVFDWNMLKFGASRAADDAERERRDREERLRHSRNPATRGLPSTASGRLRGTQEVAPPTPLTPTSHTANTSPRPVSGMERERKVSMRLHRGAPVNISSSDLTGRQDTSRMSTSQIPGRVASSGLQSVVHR
UniProt Q08345: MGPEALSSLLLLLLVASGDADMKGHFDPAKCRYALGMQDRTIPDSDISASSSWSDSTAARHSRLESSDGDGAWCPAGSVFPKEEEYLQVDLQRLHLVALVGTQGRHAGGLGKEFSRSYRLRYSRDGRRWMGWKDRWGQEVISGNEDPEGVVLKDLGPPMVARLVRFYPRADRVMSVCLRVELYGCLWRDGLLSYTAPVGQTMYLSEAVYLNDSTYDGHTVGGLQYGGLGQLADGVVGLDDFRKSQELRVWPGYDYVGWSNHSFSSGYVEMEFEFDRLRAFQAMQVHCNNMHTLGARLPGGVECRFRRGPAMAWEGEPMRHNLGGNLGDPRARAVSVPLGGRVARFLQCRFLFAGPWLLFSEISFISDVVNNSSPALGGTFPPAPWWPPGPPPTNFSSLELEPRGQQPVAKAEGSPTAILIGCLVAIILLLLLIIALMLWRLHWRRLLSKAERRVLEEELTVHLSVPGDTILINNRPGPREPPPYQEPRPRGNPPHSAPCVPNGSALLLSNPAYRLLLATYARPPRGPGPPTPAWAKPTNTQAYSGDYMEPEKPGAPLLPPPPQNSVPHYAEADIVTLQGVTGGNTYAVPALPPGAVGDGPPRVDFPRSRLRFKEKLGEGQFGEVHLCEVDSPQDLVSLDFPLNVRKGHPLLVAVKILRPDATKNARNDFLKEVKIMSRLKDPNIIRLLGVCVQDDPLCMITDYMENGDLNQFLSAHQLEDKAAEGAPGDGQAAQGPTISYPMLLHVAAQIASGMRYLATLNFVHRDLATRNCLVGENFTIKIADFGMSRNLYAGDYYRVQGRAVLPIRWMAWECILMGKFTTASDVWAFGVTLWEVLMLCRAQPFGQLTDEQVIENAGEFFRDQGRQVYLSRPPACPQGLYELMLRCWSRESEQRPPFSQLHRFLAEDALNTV
UniProt Q9Y463, whole entry, looked up: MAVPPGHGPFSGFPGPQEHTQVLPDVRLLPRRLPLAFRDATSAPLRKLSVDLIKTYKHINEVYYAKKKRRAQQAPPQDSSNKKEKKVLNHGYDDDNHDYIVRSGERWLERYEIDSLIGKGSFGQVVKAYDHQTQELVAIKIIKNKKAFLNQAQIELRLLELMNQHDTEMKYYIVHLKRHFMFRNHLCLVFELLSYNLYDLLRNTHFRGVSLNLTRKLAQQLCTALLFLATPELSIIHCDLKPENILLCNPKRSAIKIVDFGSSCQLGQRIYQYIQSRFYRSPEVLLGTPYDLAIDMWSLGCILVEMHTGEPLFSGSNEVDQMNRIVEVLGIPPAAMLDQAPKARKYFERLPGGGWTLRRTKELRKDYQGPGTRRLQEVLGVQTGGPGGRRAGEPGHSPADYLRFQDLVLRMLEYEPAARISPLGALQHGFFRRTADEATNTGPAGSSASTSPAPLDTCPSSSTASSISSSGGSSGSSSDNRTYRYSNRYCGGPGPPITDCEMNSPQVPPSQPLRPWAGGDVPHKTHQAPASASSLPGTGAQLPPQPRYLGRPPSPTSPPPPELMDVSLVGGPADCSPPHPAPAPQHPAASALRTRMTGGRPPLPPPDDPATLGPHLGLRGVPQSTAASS
UniProt Q92630: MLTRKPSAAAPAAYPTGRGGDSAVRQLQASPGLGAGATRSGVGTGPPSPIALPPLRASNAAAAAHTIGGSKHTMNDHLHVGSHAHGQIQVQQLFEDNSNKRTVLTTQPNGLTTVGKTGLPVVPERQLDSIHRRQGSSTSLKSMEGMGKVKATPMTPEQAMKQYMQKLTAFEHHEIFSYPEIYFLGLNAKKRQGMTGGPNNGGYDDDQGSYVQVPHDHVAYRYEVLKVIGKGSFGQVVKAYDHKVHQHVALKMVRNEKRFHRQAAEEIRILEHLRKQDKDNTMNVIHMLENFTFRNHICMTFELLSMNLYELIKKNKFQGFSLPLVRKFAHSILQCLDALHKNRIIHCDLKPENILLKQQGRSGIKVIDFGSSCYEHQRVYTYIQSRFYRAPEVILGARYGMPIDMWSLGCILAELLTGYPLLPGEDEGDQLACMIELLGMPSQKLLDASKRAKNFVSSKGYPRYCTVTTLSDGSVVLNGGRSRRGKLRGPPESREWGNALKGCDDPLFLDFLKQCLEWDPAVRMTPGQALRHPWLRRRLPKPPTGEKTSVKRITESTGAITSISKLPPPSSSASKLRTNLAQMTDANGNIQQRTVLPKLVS
UniProt Q15303, whole entry R711C: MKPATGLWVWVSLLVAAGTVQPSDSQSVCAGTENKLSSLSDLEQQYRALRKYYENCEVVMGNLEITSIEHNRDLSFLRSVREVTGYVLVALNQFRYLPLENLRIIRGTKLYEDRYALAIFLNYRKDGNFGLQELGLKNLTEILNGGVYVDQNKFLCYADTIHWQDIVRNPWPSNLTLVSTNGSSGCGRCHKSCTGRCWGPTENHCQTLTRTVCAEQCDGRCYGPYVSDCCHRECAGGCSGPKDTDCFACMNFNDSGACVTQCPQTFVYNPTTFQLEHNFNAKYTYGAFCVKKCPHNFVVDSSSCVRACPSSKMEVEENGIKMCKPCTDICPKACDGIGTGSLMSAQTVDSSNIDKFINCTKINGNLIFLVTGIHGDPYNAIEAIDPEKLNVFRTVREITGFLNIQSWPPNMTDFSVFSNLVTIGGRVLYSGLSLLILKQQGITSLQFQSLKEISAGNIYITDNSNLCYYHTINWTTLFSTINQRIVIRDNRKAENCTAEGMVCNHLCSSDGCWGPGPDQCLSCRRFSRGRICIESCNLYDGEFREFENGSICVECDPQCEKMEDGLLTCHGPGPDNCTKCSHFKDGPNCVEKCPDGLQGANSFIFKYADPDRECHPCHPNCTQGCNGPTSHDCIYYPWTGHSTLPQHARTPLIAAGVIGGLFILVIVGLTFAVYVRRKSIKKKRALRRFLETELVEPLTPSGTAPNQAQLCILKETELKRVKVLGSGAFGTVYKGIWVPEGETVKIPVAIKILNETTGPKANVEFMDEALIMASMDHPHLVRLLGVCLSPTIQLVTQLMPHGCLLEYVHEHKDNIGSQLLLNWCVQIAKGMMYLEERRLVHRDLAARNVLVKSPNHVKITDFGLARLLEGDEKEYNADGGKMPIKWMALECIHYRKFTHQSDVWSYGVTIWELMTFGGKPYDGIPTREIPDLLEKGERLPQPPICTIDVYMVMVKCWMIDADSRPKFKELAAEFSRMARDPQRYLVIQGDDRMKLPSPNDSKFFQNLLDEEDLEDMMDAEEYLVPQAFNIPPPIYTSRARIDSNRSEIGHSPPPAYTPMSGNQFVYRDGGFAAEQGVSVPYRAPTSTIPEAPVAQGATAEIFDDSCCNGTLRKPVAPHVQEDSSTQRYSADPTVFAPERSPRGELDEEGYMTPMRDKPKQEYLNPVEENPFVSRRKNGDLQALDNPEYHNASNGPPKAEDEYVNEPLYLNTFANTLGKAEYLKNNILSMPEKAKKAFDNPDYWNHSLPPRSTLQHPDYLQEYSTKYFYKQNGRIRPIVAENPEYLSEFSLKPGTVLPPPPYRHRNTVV

Tests used:
Assay in all cases: kinase-Nluc reporter destabilization hit call (1 = scored as downregulated) (binary); higher = compound decreases kinase abundance
Conditions in all cases: K562; 2-18 h
CDK7 = CDK7 (UniProt P50613)
CDK9 = CDK9 (UniProt P50750)
CHEK2 = CHEK2 (UniProt O96017)
CSF1R = CSF1R (UniProt P07333)
CSK = CSK (UniProt P41240)
CSNK1A1 = CSNK1A1 (UniProt P48729)
CSNK1D = CSNK1D (UniProt P48730)
DDR1 = DDR1 (UniProt Q08345)
DYRK1B = DYRK1B (UniProt Q9Y463)
DYRK2 = DYRK2 (UniProt Q92630)
EGFR = EGFR (UniProt P00533)
EGFR_G719S = EGFR_G719S (UniProt P00533)
EGFR_G719S_T790M = EGFR_G719S_T790M (UniProt P00533)
EGFR_L718V = EGFR_L718V (UniProt P00533)
EGFR_L858R = EGFR_L858R (UniProt P00533)
EGFR_L861Q = EGFR_L861Q (UniProt P00533)
EGFR_T790M = EGFR_T790M (UniProt P00533)
EPHA2 = EPHA2 (UniProt P29317)
ERBB3 = ERBB3 (UniProt P21860)
[1] = biological target: ERBB4_R711C (clone: ERBB4_mut) (UniProt Q15303)

Measured: kinase-Nluc reporter destabilization hit call

Cc1ccc(C(=O)Nc2ccc(Oc3cc4cnn(C)c4cc3-c3cn[nH]c3)c(F)c2)c(=O)n1-c1ccc(F)cc1 [Merestinib] (2.5 µM)
inactive: CDK7 = 0 | CDK9 = 0 | CHEK2 = 0 | CSF1R 0 | CSK 0 | CSNK1A1 = 0 | CSNK1D 0 | DDR1 = 0 | DYRK1B 0 | DYRK2 = 0 | EGFR 0 | EGFR_G719S 0 | EGFR_G719S_T790M 0 | EGFR_L718V 0 | EGFR_L858R 0 | EGFR_L861Q 0 | EGFR_T790M 0 | EPHA2 = 0 | ERBB3 = 0 | [1] 0

CC(=O)c1c(C)cc2cccc(O)c2c1O [Nepodin] (10 µM)
inactive: CDK7 = 0 | CDK9 = 0 | CHEK2 = 0 | CSF1R 0 | CSK 0 | CSNK1A1 = 0 | CSNK1D 0 | DDR1 = 0 | DYRK1B 0 | DYRK2 = 0 | EGFR 0 | EGFR_G719S 0 | EGFR_G719S_T790M 0 | EGFR_L718V 0 | EGFR_L858R 0 | EGFR_L861Q 0 | EGFR_T790M 0 | EPHA2 = 0 | ERBB3 = 0 | [1] 0

CN1CCN(c2cnc3c(C4CCN(C(=O)c5ccc(OC(F)(F)F)cc5N)CC4)ncnc3c2)CC1 (10 µM)
inactive: CDK7 = 0 | CDK9 = 0 | CHEK2 = 0 | CSF1R 0 | CSK 0 | CSNK1A1 = 0 | CSNK1D 0 | DDR1 = 0 | DYRK1B 0 | DYRK2 = 0 | EGFR 0 | EGFR_G719S 0 | EGFR_G719S_T790M 0 | EGFR_L718V 0 | EGFR_L858R 0 | EGFR_L861Q 0 | EGFR_T790M 0 | EPHA2 = 0 | ERBB3 = 0 | [1] 0

COc1cc2nccc(Oc3ccc(NC(=O)NC4CC4)c(Cl)c3)c2cc1C(N)=O [Lenvatinib] (10 µM)
inactive: CDK7 = 0 | CDK9 = 0 | CHEK2 = 0 | CSF1R 0 | CSK 0 | CSNK1A1 = 0 | CSNK1D 0 | DDR1 = 0 | DYRK1B 0 | DYRK2 = 0 | EGFR 0 | EGFR_G719S 0 | EGFR_G719S_T790M 0 | EGFR_L718V 0 | EGFR_L858R 0 | EGFR_L861Q 0 | EGFR_T790M 0 | EPHA2 = 0 | ERBB3 = 0 | [1] 0

CCOc1ccc2cc(-c3nn(CC4CCN(C)CC4)c4ncnc(N)c34)ccc2n1 (10 µM)
inactive: CDK7 = 0 | CDK9 = 0 | CHEK2 = 0 | CSF1R 0 | CSK 0 | CSNK1A1 = 0 | CSNK1D 0 | DDR1 = 0 | DYRK1B 0 | DYRK2 = 0 | EGFR 0 | EGFR_G719S 0 | EGFR_G719S_T790M 0 | EGFR_L718V 0 | EGFR_L858R 0 | EGFR_L861Q 0 | EGFR_T790M 0 | EPHA2 = 0 | ERBB3 = 0 | [1] 0

CC#CC(=O)N1CC[C@@H](n2c(=O)n(-c3ccc(Oc4ccccc4)cc3)c3c(N)ncnc32)C1 [Tirabrutinib (hydrochloride)] (10 µM)
inactive: CDK7 = 0 | CDK9 = 0 | CHEK2 = 0 | CSF1R 0 | CSK 0 | CSNK1A1 = 0 | CSNK1D 0 | DDR1 = 0 | DYRK1B 0 | DYRK2 = 0 | EGFR 0 | EGFR_G719S 0 | EGFR_G719S_T790M 0 | EGFR_L718V 0 | EGFR_L858R 0 | EGFR_L861Q 0 | EGFR_T790M 0 | EPHA2 = 0 | ERBB3 = 0 | [1] 0

Cc1[nH]c(/C=C2\C(=O)Nc3ccc(F)cc32)c(C)c1C(=O)N[C@H]1CCN(C(=O)N(C)C)C1 [Vorolanib] (10 µM)
inactive: CDK7 = 0 | CDK9 = 0 | CHEK2 = 0 | CSF1R 0 | CSK 0 | CSNK1A1 = 0 | CSNK1D 0 | DDR1 = 0 | DYRK1B 0 | DYRK2 = 0 | EGFR 0 | EGFR_G719S 0 | EGFR_G719S_T790M 0 | EGFR_L718V 0 | EGFR_L858R 0 | EGFR_L861Q 0 | EGFR_T790M 0 | EPHA2 = 0 | ERBB3 = 0 | [1] 0

NC(=O)c1ccc(-c2nc(-c3ccc4c(c3)OCCO4)c(-c3ccccn3)[nH]2)cc1 (10 µM)
inactive: CDK7 = 0 | CDK9 = 0 | CHEK2 = 0 | CSF1R 0 | CSK 0 | CSNK1A1 = 0 | CSNK1D 0 | DDR1 = 0 | DYRK1B 0 | DYRK2 = 0 | EGFR 0 | EGFR_G719S 0 | EGFR_G719S_T790M 0 | EGFR_L718V 0 | EGFR_L858R 0 | EGFR_L861Q 0 | EGFR_T790M 0 | EPHA2 = 0 | ERBB3 = 0 | [1] 0

Cc1nc2sccn2c(=O)c1CCN1CCC(=C(c2ccccc2)c2ccc(F)cc2)CC1 (10 µM)
inactive: CDK7 = 0 | CDK9 = 0 | CHEK2 = 0 | CSF1R 0 | CSK 0 | CSNK1A1 = 0 | CSNK1D 0 | DDR1 = 0 | DYRK1B 0 | DYRK2 = 0 | EGFR 0 | EGFR_G719S 0 | EGFR_G719S_T790M 0 | EGFR_L718V 0 | EGFR_L858R 0 | EGFR_L861Q 0 | EGFR_T790M 0 | EPHA2 = 0 | ERBB3 = 0 | [1] 0

A draw from above in order of count of non-hydrogen atoms, falling:
CC#CC(=O)N1CC[C@@H](n2c(=O)n(-c3ccc(Oc4ccccc4)cc3)c3c(N)ncnc32)C1 [Tirabrutinib (hydrochloride)] (10 µM)
inactive: CDK7 = 0 | CDK9 = 0 | CHEK2 = 0 | CSF1R 0 | CSK 0 | CSNK1A1 = 0 | CSNK1D 0 | DDR1 = 0 | DYRK1B 0 | DYRK2 = 0 | EGFR 0 | EGFR_G719S 0 | EGFR_G719S_T790M 0 | EGFR_L718V 0 | EGFR_L858R 0 | EGFR_L861Q 0 | EGFR_T790M 0 | EPHA2 = 0 | ERBB3 = 0 | [1] 0

CCOc1ccc2cc(-c3nn(CC4CCN(C)CC4)c4ncnc(N)c34)ccc2n1 (10 µM)
inactive: CDK7 = 0 | CDK9 = 0 | CHEK2 = 0 | CSF1R 0 | CSK 0 | CSNK1A1 = 0 | CSNK1D 0 | DDR1 = 0 | DYRK1B 0 | DYRK2 = 0 | EGFR 0 | EGFR_G719S 0 | EGFR_G719S_T790M 0 | EGFR_L718V 0 | EGFR_L858R 0 | EGFR_L861Q 0 | EGFR_T790M 0 | EPHA2 = 0 | ERBB3 = 0 | [1] 0

NC(=O)c1ccc(-c2nc(-c3ccc4c(c3)OCCO4)c(-c3ccccn3)[nH]2)cc1 (10 µM)
inactive: CDK7 = 0 | CDK9 = 0 | CHEK2 = 0 | CSF1R 0 | CSK 0 | CSNK1A1 = 0 | CSNK1D 0 | DDR1 = 0 | DYRK1B 0 | DYRK2 = 0 | EGFR 0 | EGFR_G719S 0 | EGFR_G719S_T790M 0 | EGFR_L718V 0 | EGFR_L858R 0 | EGFR_L861Q 0 | EGFR_T790M 0 | EPHA2 = 0 | ERBB3 = 0 | [1] 0

Going on with the list.

Cc1cc(Nc2ncnc3ccc(NC4=NC(C)(C)CO4)cc23)ccc1Oc1ccn2ncnc2c1 [Tucatinib (hemiethanolate)] (2.5 µM)
inactive: CDK7 = 0 | CDK9 = 0 | CHEK2 = 0 | CSF1R 0 | CSK 0 | CSNK1A1 = 0 | CSNK1D 0 | DDR1 = 0 | DYRK1B 0 | DYRK2 = 0 | EGFR 0 | EGFR_G719S 0 | EGFR_G719S_T790M 0 | EGFR_L718V 0 | EGFR_L858R 0 | EGFR_L861Q 0 | EGFR_T790M 0 | EPHA2 = 0 | ERBB3 = 0 | [1] 0

Oc1cc2c(cc1O)C(Cc1cccc3ccccc13)NCC2 (stereo not given) (10 µM)
inactive: CDK7 = 0 | CDK9 = 0 | CHEK2 = 0 | CSF1R 0 | CSK 0 | CSNK1A1 = 0 | CSNK1D 0 | DDR1 = 0 | DYRK1B 0 | DYRK2 = 0 | EGFR 0 | EGFR_G719S 0 | EGFR_G719S_T790M 0 | EGFR_L718V 0 | EGFR_L858R 0 | EGFR_L861Q 0 | EGFR_T790M 0 | EPHA2 = 0 | ERBB3 = 0 | [1] 0

CN(C)CCCOc1ccc(-c2ccc3ncc4c(c3c2)n(C2CCOCC2)c(=O)n4C)cn1 (2 µM)
inactive: CDK7 = 0 | CDK9 = 0 | CHEK2 = 0 | CSF1R 0 | CSK 0 | CSNK1A1 = 0 | CSNK1D 0 | DDR1 = 0 | DYRK1B 0 | DYRK2 = 0 | EGFR 0 | EGFR_G719S 0 | EGFR_G719S_T790M 0 | EGFR_L718V 0 | EGFR_L858R 0 | EGFR_L861Q 0 | EGFR_T790M 0 | EPHA2 = 0 | ERBB3 = 0 | [1] 0

CCS(=O)(=O)c1ncc(Cl)c(C(=O)N(Cc2ccc(Cl)cc2)Cc2ccco2)n1 (2.5 µM)
inactive: CDK7 = 0 | CDK9 = 0 | CHEK2 = 0 | CSF1R 0 | CSK 0 | CSNK1A1 = 0 | CSNK1D 0 | DDR1 = 0 | DYRK1B 0 | DYRK2 = 0 | EGFR 0 | EGFR_G719S 0 | EGFR_G719S_T790M 0 | EGFR_L718V 0 | EGFR_L858R 0 | EGFR_L861Q 0 | EGFR_T790M 0 | EPHA2 = 0 | ERBB3 = 0 | [1] 0

CCc1cc2c(cc1N1CCC(N3CCOCC3)CC1)C(C)(C)c1[nH]c3cc(C#N)ccc3c1C2=O [Alectinib] (10 µM)
inactive: CDK7 = 0 | CDK9 = 0 | CHEK2 = 0 | CSF1R 0 | CSK 0 | CSNK1A1 = 0 | CSNK1D 0 | DDR1 = 0 | DYRK1B 0 | DYRK2 = 0 | EGFR 0 | EGFR_G719S 0 | EGFR_G719S_T790M 0 | EGFR_L718V 0 | EGFR_L858R 0 | EGFR_L861Q 0 | EGFR_T790M 0 | EPHA2 = 0 | ERBB3 = 0 | [1] 0

NS(=O)(=O)c1ccc(-n2nc(C(F)(F)F)cc2-c2ccc(Cl)cc2)cc1 (10 µM)
inactive: CDK7 = 0 | CDK9 = 0 | CHEK2 = 0 | CSF1R 0 | CSK 0 | CSNK1A1 = 0 | CSNK1D 0 | DDR1 = 0 | DYRK1B 0 | DYRK2 = 0 | EGFR 0 | EGFR_G719S 0 | EGFR_G719S_T790M 0 | EGFR_L718V 0 | EGFR_L858R 0 | EGFR_L861Q 0 | EGFR_T790M 0 | EPHA2 = 0 | ERBB3 = 0 | [1] 0

Cc1ccccc1-n1c([C@H](C)Nc2nc(N)nc3nc[nH]c23)nc2cccc(C)c2c1=O [CAL-130 (Hydrochloride)] (10 µM)
inactive: CDK7 = 0 | CDK9 = 0 | CHEK2 = 0 | CSF1R 0 | CSK 0 | CSNK1A1 = 0 | CSNK1D 0 | DDR1 = 0 | DYRK1B 0 | DYRK2 = 0 | EGFR 0 | EGFR_G719S 0 | EGFR_G719S_T790M 0 | EGFR_L718V 0 | EGFR_L858R 0 | EGFR_L861Q 0 | EGFR_T790M 0 | EPHA2 = 0 | ERBB3 = 0 | [1] 0

CCN1CCC(n2cc(CNc3cc(Cl)c4ncc(C#N)c(Nc5ccc(F)c(Cl)c5)c4c3)nn2)CC1 [Cot inhibitor-2] (2.5 µM)
inactive: CDK7 = 0 | CDK9 = 0 | CHEK2 = 0 | CSF1R 0 | CSK 0 | CSNK1A1 = 0 | CSNK1D 0 | DDR1 = 0 | DYRK1B 0 | DYRK2 = 0 | EGFR 0 | EGFR_G719S 0 | EGFR_G719S_T790M 0 | EGFR_L718V 0 | EGFR_L858R 0 | EGFR_L861Q 0 | EGFR_T790M 0 | EPHA2 = 0 | ERBB3 = 0 | [1] 0
